Drawing on PMC13545989, this text covers binding for 1 substance.

Results are given in words; binding and its absence hold for the method and conditions named. Binding seen in cells or lysates may run through a third protein. A result given as binding can be weak or reduced; the word gives no strength. Sequences can lack the tags named with a protein.

The test concerns the target T1, TRAK2 chimera with the helix region (aa 81-106) of TRAK1 (mScarlet fusion) (UniProt O60296).
T1 sequence: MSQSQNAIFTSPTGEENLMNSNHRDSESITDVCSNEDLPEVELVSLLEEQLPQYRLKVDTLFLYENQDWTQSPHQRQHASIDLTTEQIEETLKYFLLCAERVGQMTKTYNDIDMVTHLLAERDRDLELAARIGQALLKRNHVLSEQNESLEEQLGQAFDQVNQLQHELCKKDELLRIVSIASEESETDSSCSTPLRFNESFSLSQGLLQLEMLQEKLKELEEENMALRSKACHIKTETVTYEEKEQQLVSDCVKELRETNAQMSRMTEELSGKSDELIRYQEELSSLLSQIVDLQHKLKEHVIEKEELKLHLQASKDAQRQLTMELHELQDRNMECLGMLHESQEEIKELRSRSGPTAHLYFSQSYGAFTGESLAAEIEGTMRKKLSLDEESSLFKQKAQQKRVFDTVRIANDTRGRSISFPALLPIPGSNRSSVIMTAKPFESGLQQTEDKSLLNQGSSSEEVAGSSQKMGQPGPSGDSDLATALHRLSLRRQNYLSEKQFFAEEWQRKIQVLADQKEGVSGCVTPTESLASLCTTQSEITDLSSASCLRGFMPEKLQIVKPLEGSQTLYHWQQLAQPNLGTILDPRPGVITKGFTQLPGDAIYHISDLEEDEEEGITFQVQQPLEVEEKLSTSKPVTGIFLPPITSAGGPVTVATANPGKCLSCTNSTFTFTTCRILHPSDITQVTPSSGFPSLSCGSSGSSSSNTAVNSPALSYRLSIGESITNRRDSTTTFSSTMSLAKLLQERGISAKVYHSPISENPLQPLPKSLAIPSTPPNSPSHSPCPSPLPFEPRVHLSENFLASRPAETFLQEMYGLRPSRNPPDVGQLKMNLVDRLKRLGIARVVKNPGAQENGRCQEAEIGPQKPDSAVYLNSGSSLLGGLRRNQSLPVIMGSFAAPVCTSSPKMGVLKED
Nature of the test: co-IP; FLAG purification of Miro1/FP/FLAG/I3-01 synthetic cargo from hTERT RPE-1 cell lines co-expressing TRAK/mScarlet variants; immunoblot of the associated motor-adaptor components (kinesin, dynein, dynactin); also done after kinesin RNAi (fig. S4E). A general note: In western blotting, separated proteins are transferred to a membrane and probed.

“kinesin-1 (human (endogenous in hTERT RPE-1))”: the binding result was “binds”.
